Library screening results

A: 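Assay on Mycobacterium tuberculosis, filed only as a heat shock assay from Cornell; the read-out is not stated. The concentration is filed as 10 mM, unlikely as a test dose, so the dose is not known. Higher reads as stronger inhibition (inferred: compounds with an IC50 in retests scored well above the rest). Size under these conditions: about 69,000 compounds, about 930 of them at 50% or above in at least one test.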
B: 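Whole-cell assay for inhibitors of Mycobacterium tuberculosis growth, labelled Cornell in the record; the read-out is not stated. The concentration is filed as 10 mM, unlikely as a test dose, so the dose is not known. Higher means stronger inhibition (inferred from two other growth screens of the library). About 53,000 compounds were tested under these conditions; 1.7% (about 900) showed 50% or more at least once.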

The filed quantity is “Percent Effect” (%).
How 0% and 100% were set is not recorded. Most values in the screen are low, and negative values occur.
The compounds are a random part of those screened.
A dash means the value is not listed here; it may have been measured.

Compound	A	B
COc1cccc(OCC2CCCN(C(=O)c3ccc(N)nc3)C2)c1 (stereo not drawn)	8.947%	-6.065%
CC(C)n1nnc(CC(=O)NCC2(c3cccc(F)c3)CCCC2)n1	-9.286%	-27.56%
O=C(CCO)N1CCC2(CCc3ccc(-c4ccoc4)cc32)CC1	2.563%	28.81%
Cc1nc[nH]c1CN1CCOC(CCNC(=O)c2ccsc2)C1 (stereo not drawn)	-17.22%	15.91%
Cc1ccccc1N1CCCN(C(=O)c2cn(C)c3ccccc23)CC1	-10.24%	33.06%
O=C(NCCOc1ccc(F)c(F)c1)NCc1ccncc1	-24.35%	-
COC(=O)c1ccc2c(-c3ccnc(NCCO)n3)c[nH]c2c1	6.494%	-4.775%
[H][C@@]12CN(C(=O)c3cccc(C)n3)C[C@]1([H])OCCN2c1ccc(C)nn1	-15.93%	20.47%
COCCn1cnc2c(F)cc(Br)cc2c1=O	4.861%	14.67%
CC1CN(C)c2ccccc2CN1CCn1cncn1 (stereo not drawn)	-16.51%	-29.55%
CCOCC1CN(Cc2cnn(C)c2)Cc2cnn(C)c21 (stereo not drawn)	6.155%	9.15%
OCc1ccc(-c2nccn2CCC2=CCCCC2)o1	9.037%	28.95%
O=C(NC1CC1)c1ccnc(N2CCOC(c3ccc(Cl)cc3)C2)c1 (stereo not drawn)	-22.05%	-10.79%
FC(F)(F)Oc1cccc(CNCc2ccc(-n3cncn3)nc2)c1	-14.06%	-
COc1ccc(-c2nc(CN3CC(n4nc(C)cc4C)C3)no2)cc1	5.521%	46.41%
CCOC(=O)c1sc2ccsc2c1CNC(=O)CC	4.785%	19.26%
Cc1ccc(CCNC(=O)c2cccnc2)o1	80.23%	14.66%
Nc1nc(CN2CCOC(Cn3cncn3)C2)nc2ccccc12 (stereo not drawn)	-10.95%	-3.655%
Cc1cc(C)n(C2CCN(C(=O)CN3C(=O)CSc4ccccc43)C2)n1 (stereo not drawn)	-16.5%	-4.97%
CN(C)CCOCc1cncc2c1CCN(C(=O)C1CCOCC1)C2.O=C(O)C(F)(F)F.O=C(O)C(F)(F)F	5.099%	8.341%
CCOCc1cncc2c1CCN(C(=O)c1cscn1)C2.O=C(O)C(F)(F)F	18.97%	-6.691%
CN(C(=O)c1ccc(Cl)c(S(C)(=O)=O)c1)c1ccccc1	5.933%	7.115%
[H][C@]12CCCCN1CCC[C@H]2CCc1nc(-c2ccc(C)nn2)no1	-30.67%	-
Cn1c(N)c2c(=O)n(C)c(-c3ccc(Cl)cc3Cl)cc2c(C#N)c1=O	7.839%	27.37%
CN(C)CC(C)(C)Cn1cnc(-c2ccccc2)c1-c1cccc(O)c1	17.47%	26.08%
CC(C)(C)Cc1noc2ncc(C(=O)N3CCCSCC3)cc12	-29.49%	-15.47%
Cc1ccc(S(=O)(=O)Cc2noc([C@@H]3C[C@@H](O)CN3)n2)cc1	-17.15%	-
Cc1nnc(NCc2ccc(Br)cc2)o1	13.69%	42.66%
O=C(O)C(F)(F)F.[H][C@@]12CCN(S(=O)(=O)C3CC3)[C@@]1([H])CCN2Cc1ccc(C)s1	-40.18%	16.74%
CC(C)c1nc(C2CCCN2CCNS(C)(=O)=O)no1 (stereo not drawn)	-38.11%	-12.72%
COc1cc(C(C)=O)ccc1OCC(=O)N(Cc1ccsc1)C1CC1	-19.38%	2.467%
CCn1ccc(-c2cc(C(=O)O)n3nc(C)c(Cl)c3n2)n1	6.637%	20.07%
CC(CCN(C)C)NC(=O)c1cccc(C(F)(F)F)c1F (stereo not drawn)	-8.333%	26.25%
CC(=O)N1CCOC(c2c(C(=O)NC(C)(C)C)sc3ccccc23)C1 (stereo not drawn)	-22.09%	-17.51%
CC(C)N1Cc2cccc(NCC(=O)N(C)C)c2C1	2.257%	-
O=C(NCCC(=O)N1CCCC1)C(OC1CCCC1)c1ccccc1 (stereo not drawn)	-18.82%	-19.42%
O=C1CCCN1CCCNCc1cc(O)c2cccc(F)c2n1	-14.51%	-
CCN(Cc1ccc(O)c(C(=O)O)c1)CC1CCOCC1	9.739%	-3.776%
Cc1nn(C)c(C)c1CCC(=O)N(C)Cc1ccc(C#N)cc1	-11.6%	-7.588%
Cc1oc(C(=O)Nc2cccc(Cl)c2C)cc1S(N)(=O)=O	6.625%	34.11%
CN(C)Cc1cc(C2CCCN(S(=O)(=O)c3cccc(Cl)c3)C2)nn1C (stereo not drawn)	-4.478%	5.877%
CN(C)C(=O)C1CCC2(CCNCC2)C1.O=C(O)C(F)(F)F (stereo not drawn)	15.59%	-
CCOCC(O)CN1CCN(C(=O)c2cc(C)ccc2OC)CC1 (stereo not drawn)	-10.41%	-
CC1CN(Cc2cccnc2)CCN1c1ccc2nncn2n1 (stereo not drawn)	-11.93%	-13.69%
CCC(C)S(=O)(=O)N(Cc1ccco1)Cc1ccccc1O (stereo not drawn)	2.343%	9.798%
CCCN1CCCn2nc(CNC(=O)CC(C)n3ccnc3C)cc2C1 (stereo not drawn)	-23.9%	-28.14%
Cc1ncsc1CCC(=O)NCc1cc2n(n1)CCN(C(=O)N(C)C)C2	14.07%	-29.67%
O=C1CCC2(CCCN(c3ncc(Cl)cc3F)C2)CN1CC1CC1 (stereo not drawn)	-29.21%	34.99%
Cc1cc2c(=O)n3c(nc2s1)CCN(Cc1cnc(C)n1C)CC3.Cl	0.614%	5.634%
CC(C)CNC(=O)C(C)N1CCN(C2CCN(C(C)C)CC2)CC1 (stereo not drawn)	-45.72%	10.22%
CC1(c2ncc(CN3CCN(c4ncccn4)CC3)cn2)CCCCO1 (stereo not drawn)	3.8%	49.13%
COc1c(C)cnc(CN2CCC(N(C)C(C)C(N)=O)CC2)c1C (stereo not drawn)	25.16%	-22.63%
O=C1C(N2CCN(c3ccc(O)cc3)CC2)CCN1C1CCOCC1 (stereo not drawn)	-12.22%	-
COc1c(CNCc2cccnc2OC2CCCC2)c(C)nn1C	6.627%	7.725%
[H][C@@]12CC(=O)N(Cc3csc(C)n3)[C@@]1([H])CCN2C(=O)C1CCOCC1	-42.47%	0.2033%
COCCc1noc(-c2cn(Cc3ccccc3C)nn2)n1	32.79%	7.997%
CCOC(=O)c1nnc2ccccc2c1N1CCN(C(C)C)CC1	-8.233%	-
CCCS(=O)(=O)N1CCC2(CC1)CC(N1CCCC1)c1ccccc12.O=C(O)C(F)(F)F (stereo not drawn)	11.05%	22.69%
O=C(O)C(F)(F)F.[H][C@@]12CCN(c3cnccn3)C[C@]1([H])CN(C(=O)c1nccn1C)C2	3.587%	-16.05%
CN(C)S(=O)(=O)N1CC[C@]2(C[C@H](Oc3cccnc3)CO2)C1.O=C(O)C(F)(F)F	-8.319%	13.38%
CC(=O)c1c(O)n(C)c2ccccc12	-3.334%	-15.75%
NCc1cnn(-c2ccccc2C(=O)NCCc2ccncc2)c1	-14.1%	-11.12%

Source: ChEMBL document CHEMBL3988442, “University of Dundee, Small-Polar-MMV Screening Library” (2021).